According to article PMC11303431:
These are yes or no findings as the source states them, for the method shown. In cells and extracts the contact can be indirect. Some entries that bind do so weakly or less than the wild type. Blank lines part the entries; values can stand above or below the molecule they belong to.

Sequences of proteins named here, by UniProt entry; tags and fusion partners are left off.
UniProt Q01082: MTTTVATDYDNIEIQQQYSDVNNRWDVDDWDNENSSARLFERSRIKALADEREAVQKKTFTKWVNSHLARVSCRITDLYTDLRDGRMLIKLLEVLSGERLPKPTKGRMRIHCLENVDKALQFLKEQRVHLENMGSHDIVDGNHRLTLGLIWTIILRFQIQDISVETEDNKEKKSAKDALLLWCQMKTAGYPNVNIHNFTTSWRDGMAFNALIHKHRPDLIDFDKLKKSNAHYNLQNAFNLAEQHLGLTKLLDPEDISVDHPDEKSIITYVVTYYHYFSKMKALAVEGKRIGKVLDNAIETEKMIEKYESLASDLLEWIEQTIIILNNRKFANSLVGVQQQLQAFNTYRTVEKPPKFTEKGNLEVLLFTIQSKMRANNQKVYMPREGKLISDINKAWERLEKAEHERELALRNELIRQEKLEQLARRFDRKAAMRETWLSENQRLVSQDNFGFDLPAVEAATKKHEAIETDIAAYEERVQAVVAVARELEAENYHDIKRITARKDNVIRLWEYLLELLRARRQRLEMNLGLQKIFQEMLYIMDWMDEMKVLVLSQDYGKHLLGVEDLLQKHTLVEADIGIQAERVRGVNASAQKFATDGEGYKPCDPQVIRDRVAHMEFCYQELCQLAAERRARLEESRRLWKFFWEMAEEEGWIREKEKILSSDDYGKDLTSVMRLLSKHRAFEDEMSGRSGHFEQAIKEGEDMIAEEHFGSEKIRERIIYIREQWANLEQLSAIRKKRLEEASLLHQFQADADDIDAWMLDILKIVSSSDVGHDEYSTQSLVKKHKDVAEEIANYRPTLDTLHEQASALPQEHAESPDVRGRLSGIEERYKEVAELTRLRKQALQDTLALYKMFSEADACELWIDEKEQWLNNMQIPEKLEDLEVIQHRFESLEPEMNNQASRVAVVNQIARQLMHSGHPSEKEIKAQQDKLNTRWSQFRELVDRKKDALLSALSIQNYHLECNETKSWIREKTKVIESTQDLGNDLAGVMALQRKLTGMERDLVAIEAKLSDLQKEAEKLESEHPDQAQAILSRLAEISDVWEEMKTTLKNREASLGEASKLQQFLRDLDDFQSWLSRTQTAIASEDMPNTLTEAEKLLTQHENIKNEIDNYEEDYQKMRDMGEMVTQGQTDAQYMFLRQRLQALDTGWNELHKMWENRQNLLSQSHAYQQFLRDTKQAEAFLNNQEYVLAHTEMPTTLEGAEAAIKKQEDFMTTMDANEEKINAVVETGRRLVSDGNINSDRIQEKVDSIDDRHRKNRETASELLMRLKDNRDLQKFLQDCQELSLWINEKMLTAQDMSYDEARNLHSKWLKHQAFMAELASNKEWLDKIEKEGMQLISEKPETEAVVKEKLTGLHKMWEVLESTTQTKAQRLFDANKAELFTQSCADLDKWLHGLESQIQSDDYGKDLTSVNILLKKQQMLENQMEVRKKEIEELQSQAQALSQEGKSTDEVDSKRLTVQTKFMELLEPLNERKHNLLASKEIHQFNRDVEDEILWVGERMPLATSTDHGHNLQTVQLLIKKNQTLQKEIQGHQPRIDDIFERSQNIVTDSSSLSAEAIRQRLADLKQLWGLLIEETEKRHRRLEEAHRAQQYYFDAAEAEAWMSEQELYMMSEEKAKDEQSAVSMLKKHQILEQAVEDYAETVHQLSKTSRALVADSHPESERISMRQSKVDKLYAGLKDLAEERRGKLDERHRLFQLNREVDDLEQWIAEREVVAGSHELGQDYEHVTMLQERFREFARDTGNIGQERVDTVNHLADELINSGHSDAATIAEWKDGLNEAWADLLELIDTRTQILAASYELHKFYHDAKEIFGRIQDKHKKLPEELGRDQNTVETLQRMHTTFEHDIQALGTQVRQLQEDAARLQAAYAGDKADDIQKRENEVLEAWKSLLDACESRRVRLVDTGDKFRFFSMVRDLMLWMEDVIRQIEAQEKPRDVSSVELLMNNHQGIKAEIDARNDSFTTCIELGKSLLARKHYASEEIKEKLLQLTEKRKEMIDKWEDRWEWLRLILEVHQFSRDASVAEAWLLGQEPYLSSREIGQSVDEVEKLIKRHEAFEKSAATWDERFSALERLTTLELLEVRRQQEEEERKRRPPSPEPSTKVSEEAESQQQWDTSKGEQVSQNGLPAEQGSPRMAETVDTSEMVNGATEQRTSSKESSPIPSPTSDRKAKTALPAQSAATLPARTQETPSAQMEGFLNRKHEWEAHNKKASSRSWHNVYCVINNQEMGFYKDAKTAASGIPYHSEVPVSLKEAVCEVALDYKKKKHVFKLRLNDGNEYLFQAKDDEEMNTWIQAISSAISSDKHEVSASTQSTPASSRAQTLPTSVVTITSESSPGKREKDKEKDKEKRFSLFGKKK
UniProt Q07157: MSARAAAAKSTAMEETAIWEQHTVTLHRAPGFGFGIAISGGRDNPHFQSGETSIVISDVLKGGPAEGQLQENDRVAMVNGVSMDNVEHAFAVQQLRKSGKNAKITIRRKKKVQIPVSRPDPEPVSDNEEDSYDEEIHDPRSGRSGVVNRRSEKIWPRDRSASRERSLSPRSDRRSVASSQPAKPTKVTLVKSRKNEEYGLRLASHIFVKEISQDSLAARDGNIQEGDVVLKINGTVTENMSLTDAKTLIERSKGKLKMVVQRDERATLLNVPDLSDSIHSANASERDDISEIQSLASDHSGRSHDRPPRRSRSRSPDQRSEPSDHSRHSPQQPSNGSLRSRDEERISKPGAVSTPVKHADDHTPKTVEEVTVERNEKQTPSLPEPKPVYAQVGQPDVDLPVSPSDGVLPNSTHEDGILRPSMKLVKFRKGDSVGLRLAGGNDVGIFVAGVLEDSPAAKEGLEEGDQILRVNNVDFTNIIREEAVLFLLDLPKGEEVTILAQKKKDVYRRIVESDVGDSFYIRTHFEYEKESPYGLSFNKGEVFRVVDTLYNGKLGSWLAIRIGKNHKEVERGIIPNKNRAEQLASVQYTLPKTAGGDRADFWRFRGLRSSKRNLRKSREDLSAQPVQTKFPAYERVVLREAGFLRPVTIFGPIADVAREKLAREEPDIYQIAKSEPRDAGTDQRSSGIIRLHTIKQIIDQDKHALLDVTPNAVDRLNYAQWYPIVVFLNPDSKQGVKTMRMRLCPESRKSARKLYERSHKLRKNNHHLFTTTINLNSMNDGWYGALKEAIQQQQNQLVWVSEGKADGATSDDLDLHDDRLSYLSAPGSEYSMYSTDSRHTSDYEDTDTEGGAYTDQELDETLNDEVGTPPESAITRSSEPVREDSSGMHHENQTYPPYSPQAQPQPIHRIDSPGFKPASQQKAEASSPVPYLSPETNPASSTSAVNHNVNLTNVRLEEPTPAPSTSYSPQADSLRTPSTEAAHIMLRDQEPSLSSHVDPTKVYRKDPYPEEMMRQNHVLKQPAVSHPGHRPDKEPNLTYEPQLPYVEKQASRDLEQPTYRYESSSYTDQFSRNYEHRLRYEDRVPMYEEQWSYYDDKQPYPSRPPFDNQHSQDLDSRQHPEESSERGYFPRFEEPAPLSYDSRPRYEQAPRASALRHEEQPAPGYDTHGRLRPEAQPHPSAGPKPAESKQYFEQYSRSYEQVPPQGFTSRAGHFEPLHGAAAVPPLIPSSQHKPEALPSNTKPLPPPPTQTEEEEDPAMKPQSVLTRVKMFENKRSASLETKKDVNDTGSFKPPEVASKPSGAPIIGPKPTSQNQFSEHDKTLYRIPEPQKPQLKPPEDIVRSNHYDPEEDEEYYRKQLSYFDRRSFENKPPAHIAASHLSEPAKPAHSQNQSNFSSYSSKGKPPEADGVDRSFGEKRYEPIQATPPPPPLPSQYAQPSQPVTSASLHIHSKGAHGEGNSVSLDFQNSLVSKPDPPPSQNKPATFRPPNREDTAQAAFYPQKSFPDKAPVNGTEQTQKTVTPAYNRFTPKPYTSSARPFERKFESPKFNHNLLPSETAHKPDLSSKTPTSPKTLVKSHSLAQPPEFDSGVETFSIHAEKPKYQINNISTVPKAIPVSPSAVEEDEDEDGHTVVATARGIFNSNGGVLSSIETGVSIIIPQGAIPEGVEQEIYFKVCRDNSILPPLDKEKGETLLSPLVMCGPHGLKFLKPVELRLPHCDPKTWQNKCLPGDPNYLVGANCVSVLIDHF

What was measured:
[1] = biological target: Spectrin Beta Non-Erythrocytic 1 (human (endogenous in HUVEC and HMEC-1)) (UniProt Q01082); assay: co-IP; immunoprecipitation of endogenous SPTBN1 from HUVEC and HMEC-1 lysates, immunoblotting for VE-cadherin and ZO-1
[2] = biological target: T1, VE-cadherin (human (endogenous in HUVEC and HMEC-1)) (UniProt P33151); assay: co-IP; reverse: immunoprecipitation of endogenous VE-cadherin, immunoblotting for SPTBN1 (Supplemental Fig. 2A)
T1 sequence: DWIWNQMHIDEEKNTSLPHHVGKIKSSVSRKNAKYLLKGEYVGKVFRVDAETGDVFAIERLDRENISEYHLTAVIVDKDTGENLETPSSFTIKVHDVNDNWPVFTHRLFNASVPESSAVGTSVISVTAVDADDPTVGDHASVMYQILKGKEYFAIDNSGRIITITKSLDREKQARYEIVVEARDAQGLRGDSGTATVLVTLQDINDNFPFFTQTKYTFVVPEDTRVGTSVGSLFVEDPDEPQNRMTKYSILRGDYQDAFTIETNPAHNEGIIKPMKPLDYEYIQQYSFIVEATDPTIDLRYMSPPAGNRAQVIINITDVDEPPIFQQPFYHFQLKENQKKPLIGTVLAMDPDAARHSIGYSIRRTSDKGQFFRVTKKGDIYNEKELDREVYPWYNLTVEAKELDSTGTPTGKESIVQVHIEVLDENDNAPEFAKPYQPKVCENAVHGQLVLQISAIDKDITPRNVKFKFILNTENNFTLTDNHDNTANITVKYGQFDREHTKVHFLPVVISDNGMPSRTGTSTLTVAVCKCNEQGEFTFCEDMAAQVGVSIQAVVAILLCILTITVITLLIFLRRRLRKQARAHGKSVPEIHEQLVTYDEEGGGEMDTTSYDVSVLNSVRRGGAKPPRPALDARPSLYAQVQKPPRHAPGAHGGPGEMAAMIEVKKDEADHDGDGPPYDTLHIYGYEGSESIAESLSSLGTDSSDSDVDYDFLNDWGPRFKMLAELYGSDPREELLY

binding [1]: no binding
Molecule: tight junction protein ZO-1 (from UniProt Q07157 1-1748)

binding [2]: binds
Molecule: Spectrin Beta Non-Erythrocytic 1 (from UniProt Q01082 1-2364)

binding [1]: binds
B1: VE-cadherin (protein, UniProt P33151 48-784)
chain: T1 sequence
